The supplement of paper PMC10849652
Some of the results follow.

Protein sequences, listed by entry. Tags and fused reporters are not part of them. Lines headed by an entry give the natural chain unless they say otherwise; changes in a name come on top.
UniProt Q9UKJ5: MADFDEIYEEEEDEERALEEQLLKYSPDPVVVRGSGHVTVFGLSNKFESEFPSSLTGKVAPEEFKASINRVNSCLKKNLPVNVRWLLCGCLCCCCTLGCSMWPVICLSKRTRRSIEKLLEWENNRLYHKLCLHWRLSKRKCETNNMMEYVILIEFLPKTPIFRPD
UniProt Q9UEE9, whole entry, looked up: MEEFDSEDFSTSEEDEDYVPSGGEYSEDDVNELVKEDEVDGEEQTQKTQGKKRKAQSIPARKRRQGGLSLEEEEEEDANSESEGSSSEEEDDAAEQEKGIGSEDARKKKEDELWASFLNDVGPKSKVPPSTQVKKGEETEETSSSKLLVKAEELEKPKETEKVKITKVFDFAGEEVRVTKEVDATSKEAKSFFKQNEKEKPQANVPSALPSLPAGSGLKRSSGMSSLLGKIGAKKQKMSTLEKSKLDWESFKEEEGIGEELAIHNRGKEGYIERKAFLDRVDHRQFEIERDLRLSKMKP
UniProt Q8TAP6: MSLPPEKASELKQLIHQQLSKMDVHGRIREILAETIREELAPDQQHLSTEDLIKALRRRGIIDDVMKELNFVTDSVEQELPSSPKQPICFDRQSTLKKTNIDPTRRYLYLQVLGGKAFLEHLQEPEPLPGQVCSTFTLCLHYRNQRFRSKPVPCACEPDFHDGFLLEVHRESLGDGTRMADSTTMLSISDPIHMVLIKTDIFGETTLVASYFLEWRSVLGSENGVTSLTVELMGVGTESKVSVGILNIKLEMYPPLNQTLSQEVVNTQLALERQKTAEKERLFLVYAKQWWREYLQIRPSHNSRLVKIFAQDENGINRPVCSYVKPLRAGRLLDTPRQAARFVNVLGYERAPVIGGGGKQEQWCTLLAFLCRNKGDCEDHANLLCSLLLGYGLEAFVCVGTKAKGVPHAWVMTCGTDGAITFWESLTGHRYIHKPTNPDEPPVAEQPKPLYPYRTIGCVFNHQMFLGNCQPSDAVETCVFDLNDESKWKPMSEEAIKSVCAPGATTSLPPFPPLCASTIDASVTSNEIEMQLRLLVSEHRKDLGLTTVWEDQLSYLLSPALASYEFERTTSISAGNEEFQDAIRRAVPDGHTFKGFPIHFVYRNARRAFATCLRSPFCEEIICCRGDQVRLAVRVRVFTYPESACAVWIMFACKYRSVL
UniProt P35790, whole entry, looked up: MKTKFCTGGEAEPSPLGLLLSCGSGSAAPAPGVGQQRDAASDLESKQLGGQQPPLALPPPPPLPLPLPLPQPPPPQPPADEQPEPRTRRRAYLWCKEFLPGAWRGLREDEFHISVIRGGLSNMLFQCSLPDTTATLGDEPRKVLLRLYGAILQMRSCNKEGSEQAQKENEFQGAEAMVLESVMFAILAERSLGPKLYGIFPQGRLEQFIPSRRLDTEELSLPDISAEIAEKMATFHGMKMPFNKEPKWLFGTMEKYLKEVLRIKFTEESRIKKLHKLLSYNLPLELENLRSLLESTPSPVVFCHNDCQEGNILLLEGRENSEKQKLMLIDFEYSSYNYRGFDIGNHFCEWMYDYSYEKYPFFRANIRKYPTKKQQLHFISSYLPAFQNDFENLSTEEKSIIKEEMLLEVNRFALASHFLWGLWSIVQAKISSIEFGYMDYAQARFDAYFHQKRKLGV
UniProt Q5VV42: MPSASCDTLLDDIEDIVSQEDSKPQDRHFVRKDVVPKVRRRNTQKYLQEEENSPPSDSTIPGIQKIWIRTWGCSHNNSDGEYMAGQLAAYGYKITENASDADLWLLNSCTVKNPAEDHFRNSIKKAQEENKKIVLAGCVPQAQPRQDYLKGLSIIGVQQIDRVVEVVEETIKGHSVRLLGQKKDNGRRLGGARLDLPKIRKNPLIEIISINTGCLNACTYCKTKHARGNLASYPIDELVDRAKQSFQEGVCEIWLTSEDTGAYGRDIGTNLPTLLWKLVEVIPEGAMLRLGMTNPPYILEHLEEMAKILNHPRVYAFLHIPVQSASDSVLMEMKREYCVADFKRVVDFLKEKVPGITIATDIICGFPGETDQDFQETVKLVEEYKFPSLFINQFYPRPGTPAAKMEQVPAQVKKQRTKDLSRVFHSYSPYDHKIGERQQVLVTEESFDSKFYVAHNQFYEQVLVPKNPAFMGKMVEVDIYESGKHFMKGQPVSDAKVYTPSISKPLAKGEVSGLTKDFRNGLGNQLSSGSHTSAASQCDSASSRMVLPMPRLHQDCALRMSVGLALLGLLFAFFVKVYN
UniProt Q14004, whole entry, looked up: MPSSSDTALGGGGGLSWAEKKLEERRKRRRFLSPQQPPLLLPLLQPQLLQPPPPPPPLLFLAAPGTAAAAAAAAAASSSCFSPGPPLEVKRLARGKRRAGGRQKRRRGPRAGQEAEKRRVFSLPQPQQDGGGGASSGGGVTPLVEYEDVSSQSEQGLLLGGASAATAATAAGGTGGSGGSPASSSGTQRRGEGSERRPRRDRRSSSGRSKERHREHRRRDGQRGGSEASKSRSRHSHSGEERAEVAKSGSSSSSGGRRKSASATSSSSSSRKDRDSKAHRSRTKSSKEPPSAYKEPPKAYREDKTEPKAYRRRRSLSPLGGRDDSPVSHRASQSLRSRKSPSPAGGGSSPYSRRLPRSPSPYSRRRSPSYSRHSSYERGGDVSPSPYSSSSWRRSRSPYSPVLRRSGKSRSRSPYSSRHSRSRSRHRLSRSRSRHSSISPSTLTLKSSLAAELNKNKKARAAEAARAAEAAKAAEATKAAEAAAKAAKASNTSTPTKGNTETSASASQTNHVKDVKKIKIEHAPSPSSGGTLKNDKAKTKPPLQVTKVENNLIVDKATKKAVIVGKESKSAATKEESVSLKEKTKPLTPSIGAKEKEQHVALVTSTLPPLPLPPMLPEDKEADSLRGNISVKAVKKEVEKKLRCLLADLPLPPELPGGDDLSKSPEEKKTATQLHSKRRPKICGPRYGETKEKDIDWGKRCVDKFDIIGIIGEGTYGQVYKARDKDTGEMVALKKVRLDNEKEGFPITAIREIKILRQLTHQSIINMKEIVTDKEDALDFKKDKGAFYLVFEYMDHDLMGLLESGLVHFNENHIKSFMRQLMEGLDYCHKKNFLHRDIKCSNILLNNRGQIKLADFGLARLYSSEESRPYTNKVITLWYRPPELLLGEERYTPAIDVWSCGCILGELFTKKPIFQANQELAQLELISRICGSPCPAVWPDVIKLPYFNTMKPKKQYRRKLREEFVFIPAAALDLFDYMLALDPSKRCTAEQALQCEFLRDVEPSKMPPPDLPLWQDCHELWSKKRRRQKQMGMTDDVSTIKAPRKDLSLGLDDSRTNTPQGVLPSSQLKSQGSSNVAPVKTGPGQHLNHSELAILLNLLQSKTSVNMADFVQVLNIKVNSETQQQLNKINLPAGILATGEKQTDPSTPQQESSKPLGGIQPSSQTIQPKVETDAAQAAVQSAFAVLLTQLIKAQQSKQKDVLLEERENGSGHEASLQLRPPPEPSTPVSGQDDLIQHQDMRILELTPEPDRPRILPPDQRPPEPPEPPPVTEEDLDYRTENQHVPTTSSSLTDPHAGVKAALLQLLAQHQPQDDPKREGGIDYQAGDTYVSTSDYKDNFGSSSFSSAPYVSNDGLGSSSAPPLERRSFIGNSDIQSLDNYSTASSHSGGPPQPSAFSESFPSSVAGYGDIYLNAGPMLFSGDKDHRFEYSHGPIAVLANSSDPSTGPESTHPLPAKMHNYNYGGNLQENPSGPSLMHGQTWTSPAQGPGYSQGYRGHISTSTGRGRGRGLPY
UniProt P57076: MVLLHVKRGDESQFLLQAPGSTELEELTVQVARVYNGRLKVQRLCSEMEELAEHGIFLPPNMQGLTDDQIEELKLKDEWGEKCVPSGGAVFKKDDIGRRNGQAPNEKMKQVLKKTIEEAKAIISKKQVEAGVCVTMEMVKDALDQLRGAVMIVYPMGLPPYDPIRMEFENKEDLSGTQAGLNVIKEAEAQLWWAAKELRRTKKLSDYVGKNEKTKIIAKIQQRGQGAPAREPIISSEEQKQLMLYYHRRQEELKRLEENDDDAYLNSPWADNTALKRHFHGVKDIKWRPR
UniProt P23528, whole entry, looked up: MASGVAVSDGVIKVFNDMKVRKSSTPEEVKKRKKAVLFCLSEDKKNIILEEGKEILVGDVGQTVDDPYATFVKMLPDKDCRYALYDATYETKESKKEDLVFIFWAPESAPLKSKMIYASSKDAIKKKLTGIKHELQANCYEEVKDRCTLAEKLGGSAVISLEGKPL
UniProt Q9H5V8, whole entry, looked up: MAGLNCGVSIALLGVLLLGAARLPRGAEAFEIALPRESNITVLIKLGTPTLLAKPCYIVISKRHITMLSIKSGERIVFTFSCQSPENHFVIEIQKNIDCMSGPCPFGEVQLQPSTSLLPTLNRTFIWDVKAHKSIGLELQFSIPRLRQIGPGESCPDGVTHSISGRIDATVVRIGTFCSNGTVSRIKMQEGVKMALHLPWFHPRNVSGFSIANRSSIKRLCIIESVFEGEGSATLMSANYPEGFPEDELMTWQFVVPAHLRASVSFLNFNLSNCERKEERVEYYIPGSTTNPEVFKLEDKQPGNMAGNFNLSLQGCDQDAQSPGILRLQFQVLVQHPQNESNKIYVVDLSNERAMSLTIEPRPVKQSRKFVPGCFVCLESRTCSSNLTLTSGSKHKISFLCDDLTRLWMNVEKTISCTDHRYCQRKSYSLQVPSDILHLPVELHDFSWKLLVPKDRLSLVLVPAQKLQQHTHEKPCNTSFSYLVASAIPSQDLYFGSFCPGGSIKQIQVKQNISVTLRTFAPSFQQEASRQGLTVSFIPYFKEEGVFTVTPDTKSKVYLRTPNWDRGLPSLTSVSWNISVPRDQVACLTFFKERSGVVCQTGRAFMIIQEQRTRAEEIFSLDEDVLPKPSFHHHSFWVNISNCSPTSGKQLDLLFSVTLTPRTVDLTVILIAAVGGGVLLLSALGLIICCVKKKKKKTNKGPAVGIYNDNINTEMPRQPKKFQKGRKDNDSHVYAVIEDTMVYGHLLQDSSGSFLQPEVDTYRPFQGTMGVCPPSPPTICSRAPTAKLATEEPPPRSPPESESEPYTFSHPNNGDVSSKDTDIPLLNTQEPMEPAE
UniProt Q96G23: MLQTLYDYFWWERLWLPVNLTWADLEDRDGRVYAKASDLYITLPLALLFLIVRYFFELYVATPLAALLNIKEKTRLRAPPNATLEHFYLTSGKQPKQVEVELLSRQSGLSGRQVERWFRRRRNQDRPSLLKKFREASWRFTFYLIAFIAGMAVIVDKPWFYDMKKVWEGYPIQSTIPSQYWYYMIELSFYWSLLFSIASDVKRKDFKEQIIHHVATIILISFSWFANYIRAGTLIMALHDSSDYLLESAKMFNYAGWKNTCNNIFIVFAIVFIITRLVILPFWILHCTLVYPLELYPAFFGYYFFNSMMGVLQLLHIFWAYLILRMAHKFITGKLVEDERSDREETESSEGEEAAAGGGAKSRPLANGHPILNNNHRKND
UniProt Q00536: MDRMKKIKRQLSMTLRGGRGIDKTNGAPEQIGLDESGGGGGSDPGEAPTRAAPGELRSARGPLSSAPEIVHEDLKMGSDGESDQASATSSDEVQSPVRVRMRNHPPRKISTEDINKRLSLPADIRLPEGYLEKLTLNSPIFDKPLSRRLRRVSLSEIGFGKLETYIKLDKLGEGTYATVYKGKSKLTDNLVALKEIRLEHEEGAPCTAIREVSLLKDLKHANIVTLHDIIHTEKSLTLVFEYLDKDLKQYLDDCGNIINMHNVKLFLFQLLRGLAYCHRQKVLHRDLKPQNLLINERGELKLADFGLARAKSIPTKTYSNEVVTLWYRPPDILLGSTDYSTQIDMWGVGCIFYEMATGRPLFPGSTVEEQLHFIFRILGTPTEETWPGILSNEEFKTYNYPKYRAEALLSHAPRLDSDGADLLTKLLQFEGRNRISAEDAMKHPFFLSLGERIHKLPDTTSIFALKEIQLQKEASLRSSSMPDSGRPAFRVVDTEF
UniProt Q96FF9: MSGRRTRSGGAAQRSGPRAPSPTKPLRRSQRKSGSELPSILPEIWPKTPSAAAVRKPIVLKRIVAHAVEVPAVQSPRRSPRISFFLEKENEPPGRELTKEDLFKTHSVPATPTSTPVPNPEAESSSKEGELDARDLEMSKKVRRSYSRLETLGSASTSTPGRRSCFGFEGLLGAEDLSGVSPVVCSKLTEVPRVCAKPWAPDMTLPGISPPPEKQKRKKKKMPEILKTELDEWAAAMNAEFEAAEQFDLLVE
UniProt O95319: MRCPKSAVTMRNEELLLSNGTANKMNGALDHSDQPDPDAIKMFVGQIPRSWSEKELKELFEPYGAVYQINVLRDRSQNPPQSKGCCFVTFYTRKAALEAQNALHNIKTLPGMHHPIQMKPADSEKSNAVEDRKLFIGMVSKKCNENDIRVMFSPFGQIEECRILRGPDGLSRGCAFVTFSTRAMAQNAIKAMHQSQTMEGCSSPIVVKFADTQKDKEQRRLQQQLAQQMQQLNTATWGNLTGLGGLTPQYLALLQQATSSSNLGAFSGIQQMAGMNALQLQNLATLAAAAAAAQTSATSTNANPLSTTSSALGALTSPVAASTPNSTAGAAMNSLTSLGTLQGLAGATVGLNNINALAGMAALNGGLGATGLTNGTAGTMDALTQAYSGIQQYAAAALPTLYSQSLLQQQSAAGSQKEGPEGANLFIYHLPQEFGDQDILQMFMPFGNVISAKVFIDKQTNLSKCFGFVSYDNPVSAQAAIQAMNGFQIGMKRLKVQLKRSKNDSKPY

These targets were tested with c1cc(OCCN2CCCCC2)cc(-c2n[nH]c3ccc(-c4nnc[nH]4)cc23)c1 (assay: log2 fold change, soluble protein after heating vs DMSO (PISA); higher = thermal stabilisation; K562 cells, 10 uM, 30 min; active = over 0.2 and 3.5 SD of the protein, either way, in both replicates (recomputed)).
Outline: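 K562 cells at 2×10^6 cells/mL were treated for 30 min with 10 μM compound, and aliquots were heated for 3 min over 48°C-58°C before pooling. Extraction used PBS with 0.5% NP-40 at 4°C, and soluble protein was the supernatant after 21,000xg for 90 min, measured by TMTpro 16plex LC-MS/MS with channel sums equalised. Thermal stability values, relative to control samples and from duplicates, are log2 fold changes.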
For CHIC2 (UniProt Q9UKJ5), the log2 fold change was inactive: -0.146.
In the case of CFDP1 (UniProt Q9UEE9), the log2 fold change is reported as inactive: 0.015.
For CHMP2A (UniProt O43633), the log2 fold change was inactive: 0.008.
With CHD4 isoform 2 (UniProt Q14839) the log2 fold change was inactive: -0.069.
For CEP76 (UniProt Q8TAP6), the log2 fold change was inactive: 0.002.
CDK5RAP3 isoform 4 (UniProt Q96JB5) was tested, and the log2 fold change was inactive: 0.019.
CHKA (UniProt P35790) was tested, and the log2 fold change was inactive: -0.012.
For CDC73 (UniProt Q6P1J9), the log2 fold change was inactive: -0.275.
In the case of CHCHD3 (UniProt Q9NX63), the log2 fold change is reported as inactive: 0.009.
For CDKAL1 (UniProt Q5VV42), the log2 fold change was inactive: -0.051.
In the case of CDK13 (UniProt Q14004), the log2 fold change is reported as inactive: -0.196.
In the case of CFAP20 (UniProt Q9Y6A4), the log2 fold change is reported as inactive: -0.221.
With CHD6 (UniProt Q8TD26) the log2 fold change was inactive: -0.13.
In the case of CHMP4A isoform 2 (UniProt Q9BY43), the log2 fold change is reported as inactive: 0.028.
In the case of CHMP4B (UniProt Q9H444), the log2 fold change is reported as inactive: 0.022.
In the case of CDK11B (UniProt P21127), the log2 fold change is reported as inactive: -0.301.
CHMP3 (UniProt Q9Y3E7) was tested, and the log2 fold change was inactive: 0.004.
CFAP298 (UniProt P57076) was tested, and the log2 fold change was inactive: -0.047.
For CETN2 (UniProt P41208), the log2 fold change was inactive: -0.091.
In the case of CHAC2 (UniProt Q8WUX2), the log2 fold change is reported as active: 0.419.
For CETN3 (UniProt O15182), the log2 fold change was inactive: -0.061.
CHD3 isoform 3 (UniProt Q12873) was tested, and the log2 fold change was inactive: -0.101.
With CFL2 (UniProt Q9Y281) the log2 fold change was inactive: -0.14.
With CHEK2 isoform 9 (UniProt O96017) the log2 fold change was inactive: -0.002.
For CFL1 (UniProt P23528), the log2 fold change was inactive: 0.026.
With CDCP1 (UniProt Q9H5V8) the log2 fold change was inactive: -0.174.
CDS2 (UniProt O95674) was tested, and the log2 fold change was inactive: 0.013.
With CDC42BPA isoform 6 (UniProt Q5VT25) the log2 fold change was inactive: -0.203.
For CEPT1 (UniProt Q9Y6K0), the log2 fold change was inactive: -0.085.
CHAMP1 (UniProt Q96JM3) was tested, and the log2 fold change was inactive: -0.078.
With CGGBP1 (UniProt Q9UFW8) the log2 fold change was inactive: -0.057.
For CDK5RAP1 (UniProt Q96SZ6), the log2 fold change was inactive: -0.031.
For CERS2 (UniProt Q96G23), the log2 fold change was inactive: -0.087.
For CDK16 isoform 2 (UniProt Q00536), the log2 fold change was inactive: -0.006.
For CDCA5 (UniProt Q96FF9), the log2 fold change was inactive: -0.059.
With CHMP4C (UniProt Q96CF2) the log2 fold change was inactive: 0.052.
For CELF2 isoform 3 (UniProt O95319), the log2 fold change was inactive: -0.021.
For CERS5 (UniProt Q8N5B7), the log2 fold change was inactive: -0.017.
With CDCA3 (UniProt Q99618) the log2 fold change was inactive: -0.045.
